Experimental findings from the supplement of paper PMC4635364 are described below.

Experiment [1] concerns ReNCell VM. The experiment is described as follows: neuronal differentiation score (DCX+ cell fraction vs untreated, manual image score) (score (-3 to 3)); higher = more neuronal differentiation. The note with it: 2 uM, 2 weeks.
Experiment [2] deals with ReNCell VM. In words: dopaminergic neuron differentiation score (TH+ cell fraction vs untreated, manual image score) (score (0 to 3)); higher = more TH+ dopaminergic neuron differentiation. The settings on record: 2 uM, 4 weeks, BDNF 10 ng/ml + GDNF 10 ng/ml.

Where a name gives a salt, the structure may show the parent alone. Some of the results follow. Repeats in this data set agree poorly, so a single value says little.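 ReNCell VM, a human fetal ventral-midbrain neural progenitor line, was differentiated without mitogens. Blinded raters scored images stained for doublecortin (early neurons) or tyrosine hydroxylase (dopaminergic neurons) against untreated wells (0 = no change). Scores were averaged across repeats and both raters, and compounds averaging 2 or more were selected as hits for retesting.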

As to `Clc1ccc(CO/N=C(\Cn2ccnc2)c2ccc(Cl)cc2Cl)c(Cl)c1` [Oxiconazole Nitrate], the neuronal differentiation score in experiment [1] (library: Prestwick) is inactive: 0. In addition, the “dopaminergic neuron differentiation score” value in experiment [2] (library: Prestwick) was inactive: 1.

On to `CC1(C)C(=O)NC2=C1C(=O)C(=O)c1ccccc12`, for which, in experiment [1] (library: Tocriscreen), the neuronal differentiation score was inactive: 0. Besides, in experiment [2] (library: Tocriscreen), the “dopaminergic neuron differentiation score” value was inactive: 0.

In the case of `CC(C)[C@H]1c2ccc(F)cc2CC[C@@]1(CCN(C)CCCc1nc2ccccc2[nH]1)OC(=O)C1CC1` [NNC 55-0396 dihydrochloride], the neuronal differentiation score in experiment [1] (library: Tocriscreen) is inactive: 0. Also, the “dopaminergic neuron differentiation score” value in experiment [2] (library: Tocriscreen) was inactive: 0.

In the case of `C=C[C@H]1CN2CC[C@H]1C[C@@H]2[C@@H](O)c1ccnc2ccc(OC)cc12`, the neuronal differentiation score in experiment [1] (library: Spectrum) is inactive: 0. The “dopaminergic neuron differentiation score” value in experiment [2] (library: Spectrum) was inactive: 0.

Turning to `COc1ccc(-c2coc3cc(O)ccc3c2=O)cc1`, in experiment [1] (library: Spectrum), the neuronal differentiation score is inactive: 0. Further, the “dopaminergic neuron differentiation score” value in experiment [2] (library: Spectrum) was inactive: 0.
